Laboratory results published in the supplement of paper PMC6411743.
± gives the standard deviation of the averaged measurements. Some of the results follow.

Experiments:
Test in all cases: NP40-soluble protein abundance relative to vehicle (solubility fold change) (ratio); higher = more soluble protein in presence of GTP
TXNL1 = biological target: T1, TXNL1 (UniProt O43396)
T1 sequence (whole entry): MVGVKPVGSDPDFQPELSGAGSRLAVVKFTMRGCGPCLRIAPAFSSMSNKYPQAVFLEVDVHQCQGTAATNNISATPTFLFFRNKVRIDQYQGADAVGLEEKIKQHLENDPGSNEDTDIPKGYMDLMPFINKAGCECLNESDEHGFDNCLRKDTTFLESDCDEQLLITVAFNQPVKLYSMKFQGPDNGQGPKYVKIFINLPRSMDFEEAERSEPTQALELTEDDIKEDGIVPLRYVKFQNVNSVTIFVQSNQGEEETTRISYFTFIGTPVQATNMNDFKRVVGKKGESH
Procedure, shortened: (§1)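 Values are fold changes against the detergent-processed vehicle, based on vsn-normalised intensities. Jurkat crude lysate was treated at eight concentrations from 0.1 to 10 mM (10 min at room temperature, then 3 min at 37 °C), solubilised with 0.8% NP40 and benzonase, ultracentrifuged and analysed by TMT-labelled LC-MS/MS over three independent experiments.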

[1] = biological target: T2, UniProt O14966 and related entries
T2 sequence (whole entry): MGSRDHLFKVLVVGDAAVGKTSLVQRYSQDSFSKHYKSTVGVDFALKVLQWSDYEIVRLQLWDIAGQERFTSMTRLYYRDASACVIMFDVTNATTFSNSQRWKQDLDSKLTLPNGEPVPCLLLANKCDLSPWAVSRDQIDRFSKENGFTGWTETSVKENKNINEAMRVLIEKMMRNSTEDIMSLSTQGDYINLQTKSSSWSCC
Procedure, shortened: as §1

UniProt O15091 = biological target: T3, UniProt O15091
T3 sequence (whole entry): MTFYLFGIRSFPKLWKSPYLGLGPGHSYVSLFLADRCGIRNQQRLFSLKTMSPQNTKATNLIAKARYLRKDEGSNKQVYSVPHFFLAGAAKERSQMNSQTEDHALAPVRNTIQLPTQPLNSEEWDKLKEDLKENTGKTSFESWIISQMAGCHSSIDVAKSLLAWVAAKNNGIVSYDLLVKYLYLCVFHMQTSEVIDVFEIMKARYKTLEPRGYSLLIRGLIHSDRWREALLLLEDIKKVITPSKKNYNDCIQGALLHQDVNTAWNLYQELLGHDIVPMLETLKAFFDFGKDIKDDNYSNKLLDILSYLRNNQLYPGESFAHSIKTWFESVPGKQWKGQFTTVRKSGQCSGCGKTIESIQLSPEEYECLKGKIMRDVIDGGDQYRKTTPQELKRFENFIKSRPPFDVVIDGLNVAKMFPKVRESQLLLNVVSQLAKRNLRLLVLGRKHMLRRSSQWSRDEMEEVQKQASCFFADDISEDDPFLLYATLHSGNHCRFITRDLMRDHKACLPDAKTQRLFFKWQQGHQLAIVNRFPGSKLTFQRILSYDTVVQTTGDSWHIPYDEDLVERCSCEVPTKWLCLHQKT
Procedure, shortened: as §1

[2] = biological target: T4, UniProt O15173 and related entries
T4 sequence (whole entry): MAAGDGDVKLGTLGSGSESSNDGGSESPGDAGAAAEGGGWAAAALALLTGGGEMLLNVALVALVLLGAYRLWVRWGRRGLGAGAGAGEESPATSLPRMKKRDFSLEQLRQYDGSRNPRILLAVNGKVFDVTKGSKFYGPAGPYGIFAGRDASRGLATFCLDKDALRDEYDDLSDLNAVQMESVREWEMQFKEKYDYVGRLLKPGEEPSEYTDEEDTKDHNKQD
Procedure, shortened: as §1

[3] = biological target: T5, UniProt O43402 and related entries
T5 sequence (whole entry): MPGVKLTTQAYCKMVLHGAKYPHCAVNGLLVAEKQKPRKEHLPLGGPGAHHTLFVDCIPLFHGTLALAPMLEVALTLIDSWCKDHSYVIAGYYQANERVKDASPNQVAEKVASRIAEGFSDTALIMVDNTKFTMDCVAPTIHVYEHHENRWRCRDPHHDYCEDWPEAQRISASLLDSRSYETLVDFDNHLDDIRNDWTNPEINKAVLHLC
Procedure, shortened: as §1

[4] = biological target: T6, UniProt O43663 and related entries
T6 sequence (whole entry): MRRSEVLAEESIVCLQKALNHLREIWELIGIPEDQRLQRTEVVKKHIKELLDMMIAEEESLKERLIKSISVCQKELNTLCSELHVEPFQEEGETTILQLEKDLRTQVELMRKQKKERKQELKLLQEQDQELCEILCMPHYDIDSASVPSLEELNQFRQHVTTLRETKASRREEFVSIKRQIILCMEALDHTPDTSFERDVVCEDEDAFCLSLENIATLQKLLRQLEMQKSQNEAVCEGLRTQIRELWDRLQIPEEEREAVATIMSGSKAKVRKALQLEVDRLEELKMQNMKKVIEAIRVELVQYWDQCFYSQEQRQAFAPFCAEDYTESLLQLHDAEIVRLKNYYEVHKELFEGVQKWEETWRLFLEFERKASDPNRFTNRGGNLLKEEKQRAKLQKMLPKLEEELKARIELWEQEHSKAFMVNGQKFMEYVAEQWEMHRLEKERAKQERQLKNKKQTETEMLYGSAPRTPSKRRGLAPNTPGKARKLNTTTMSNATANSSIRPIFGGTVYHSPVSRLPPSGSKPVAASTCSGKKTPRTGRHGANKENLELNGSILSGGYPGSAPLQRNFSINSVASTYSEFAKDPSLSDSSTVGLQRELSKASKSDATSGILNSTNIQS
Procedure, shortened: as §1

[5] = biological target: T7, UniProt O60671 and related entries
T7 sequence (whole entry): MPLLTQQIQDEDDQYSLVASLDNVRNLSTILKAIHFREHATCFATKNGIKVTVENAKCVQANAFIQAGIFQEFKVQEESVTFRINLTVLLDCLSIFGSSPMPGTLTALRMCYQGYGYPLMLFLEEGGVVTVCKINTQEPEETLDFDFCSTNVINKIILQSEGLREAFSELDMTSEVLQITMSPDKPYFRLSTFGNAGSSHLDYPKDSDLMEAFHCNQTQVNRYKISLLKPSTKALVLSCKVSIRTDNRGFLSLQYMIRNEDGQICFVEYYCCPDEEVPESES
Procedure, shortened: as §1

Work on `Nc1nc2c(ncn2[C@@H]2O[C@H](COP(=O)(O)OP(=O)(O)OP(=O)(O)O)[C@@H](O)[C@H]2O)c(=O)[nH]1` [guanosine triphosphate] yielded an NP40-soluble protein abundance (TXNL1; concentration: 0.1mM) of 0.993 ± 0.02, an NP40-soluble protein abundance (TXNL1; concentration: 0.5mM) of 1.03 ± 0.064 and an NP40-soluble protein abundance (TXNL1; concentration: 1mM) of 1.02 ± 0.042. The NP40-soluble protein abundance (TXNL1; concentration: 2mM) was 1.01 ± 0.07, the NP40-soluble protein abundance (TXNL1; concentration: 4mM) was 1 ± 0.052 and the NP40-soluble protein abundance (TXNL1; concentration: 6mM) was 1.01 ± 0.046. It also gave an NP40-soluble protein abundance (TXNL1; concentration: 8mM) of 1 ± 0.044, an NP40-soluble protein abundance (TXNL1; concentration: 10mM) of 1.01 ± 0.054 and an NP40-soluble protein abundance ([1]; concentration: 0.1mM) of 0.944 ± 0.023. The NP40-soluble protein abundance ([1]; concentration: 0.5mM) was 0.929 ± 0.11, the NP40-soluble protein abundance ([1]; concentration: 1mM) was 0.842 ± 0.038 and the NP40-soluble protein abundance ([1]; concentration: 2mM) was 0.841 ± 0.07. For the same compound, the NP40-soluble protein abundance ([1]; concentration: 4mM) was 0.835 ± 0.018, the NP40-soluble protein abundance ([1]; concentration: 6mM) was 0.858 ± 0.042 and the NP40-soluble protein abundance ([1]; concentration: 8mM) was 0.8412 ± 0.0043. The NP40-soluble protein abundance ([1]; concentration: 10mM) was 0.856 ± 0.11, the NP40-soluble protein abundance (UniProt O15091; concentration: 0.1mM) was 1.04 ± 0.026 and the NP40-soluble protein abundance (UniProt O15091; concentration: 0.5mM) was 1 ± 0.041. It also gave an NP40-soluble protein abundance (UniProt O15091; concentration: 1mM) of 0.9614 ± 0.0086, an NP40-soluble protein abundance (UniProt O15091; concentration: 2mM) of 0.979 ± 0.066 and an NP40-soluble protein abundance (UniProt O15091; concentration: 4mM) of 0.999 ± 0.046. For the same compound, the NP40-soluble protein abundance (UniProt O15091; concentration: 6mM) was 0.971 ± 0.039, the NP40-soluble protein abundance (UniProt O15091; concentration: 8mM) was 0.9685 ± 0.0064 and the NP40-soluble protein abundance (UniProt O15091; concentration: 10mM) was 0.969 ± 0.036. For the same compound, the NP40-soluble protein abundance ([2]; concentration: 0.1mM) was 0.944 ± 0.082, the NP40-soluble protein abundance ([2]; concentration: 0.5mM) was 0.83 ± 0.056 and the NP40-soluble protein abundance ([2]; concentration: 1mM) was 0.954 ± 0.067. The NP40-soluble protein abundance ([2]; concentration: 2mM) was 0.905 ± 0.018, the NP40-soluble protein abundance ([2]; concentration: 4mM) was 0.924 ± 0.025 and the NP40-soluble protein abundance ([2]; concentration: 6mM) was 0.883 ± 0.027. It also gave an NP40-soluble protein abundance ([2]; concentration: 8mM) of 0.882 ± 0.068, an NP40-soluble protein abundance ([2]; concentration: 10mM) of 0.878 ± 0.047 and an NP40-soluble protein abundance ([3]; concentration: 0.1mM) of 0.966 ± 0.074. It also gave an NP40-soluble protein abundance ([3]; concentration: 0.5mM) of 0.957 ± 0.093, an NP40-soluble protein abundance ([3]; concentration: 1mM) of 0.923 ± 0.095 and an NP40-soluble protein abundance ([3]; concentration: 2mM) of 0.92 ± 0.042. It also gave an NP40-soluble protein abundance ([3]; concentration: 4mM) of 0.958 ± 0.073, an NP40-soluble protein abundance ([3]; concentration: 6mM) of 0.906 ± 0.096 and an NP40-soluble protein abundance ([3]; concentration: 8mM) of 0.923 ± 0.087. The NP40-soluble protein abundance ([3]; concentration: 10mM) was 0.941 ± 0.068, the NP40-soluble protein abundance ([4]; concentration: 0.1mM) was 1.06 ± 0.15 and the NP40-soluble protein abundance ([4]; concentration: 0.5mM) was 1 ± 0.084. The NP40-soluble protein abundance ([4]; concentration: 1mM) was 1.03 ± 0.086, the NP40-soluble protein abundance ([4]; concentration: 2mM) was 1.1 ± 0.14 and the NP40-soluble protein abundance ([4]; concentration: 4mM) was 1.13 ± 0.094. For the same compound, the NP40-soluble protein abundance ([4]; concentration: 6mM) was 1.12 ± 0.065, the NP40-soluble protein abundance ([4]; concentration: 8mM) was 1.09 ± 0.047 and the NP40-soluble protein abundance ([4]; concentration: 10mM) was 1.15 ± 0.095. It also gave an NP40-soluble protein abundance ([5]; concentration: 0.1mM) of 0.98 ± 0.019, an NP40-soluble protein abundance ([5]; concentration: 0.5mM) of 1.01 ± 0.077 and an NP40-soluble protein abundance ([5]; concentration: 1mM) of 0.907 ± 0.043. It also gave an NP40-soluble protein abundance ([5]; concentration: 2mM) of 0.975 ± 0.082, an NP40-soluble protein abundance ([5]; concentration: 4mM) of 0.953 ± 0.062 and an NP40-soluble protein abundance ([5]; concentration: 6mM) of 0.944 ± 0.075. It also gave an NP40-soluble protein abundance ([5]; concentration: 8mM) of 0.922 ± 0.023 and an NP40-soluble protein abundance ([5]; concentration: 10mM) of 0.92 ± 0.08.
